Laboratory results reported in patent US9145351B2, “Azole derivatives, methods for producing the same, intermediate thereof, agro-horticultural agents” (KUREHA CORPORATION, priority 2009, dated 2015).
Some of these results come from one statement about several compounds together. Some ranges recur; such a range may be that of the whole group of compounds.

Tested on: rice plant
Experiment: Rice elongation prevention assay (Experimental Example 6)
Type: in vivo
Conditions: 36 mg test compound applied to 180 g of rice seeds, 20 days after seeding

Row | Structure (SMILES) | growth regulation grade (% plant height suppression)
1 | C[C@]1(CCl)CC[C@@H](Cc2ccc(Cl)cc2)[C@]1(O)Cn1cncn1 (racemic) [Compound I-1, (1RS,2SR,5SR)-5-(4-chlorobenzyl)-2-chloromethyl-2-methyl-1-(1H-1,2,4-triazol-1-ylmethyl)cyclopentanol] | 4 (% Plant height suppression of less than 50 to 30% or higher)
2 | CC(Cl)=C[C@@]1(C)CC[C@@H](Cc2ccc(Cl)cc2)[C@]1(O)Cn1cncn1 (racemic) [Compound I-15, (1RS,2RS,5SR)-5-(4-chlorobenzyl)-2-(2-chloropropenyl)-2-methyl-1-(1H-1,2,4-triazol-1-ylmethyl)cyclopentanol] | 4 (% Plant height suppression of less than 50 to 30% or higher)
3 | C[C@]1(CBr)CC[C@@H](Cc2ccc(Cl)cc2)[C@]1(O)Cn1cncn1 (racemic) [Compound I-25, (1RS,2SR,5SR)-2-bromomethyl-5-(4-chlorobenzyl)-2-methyl-1-(1H-1,2,4-triazol-1-ylmethyl)cyclopentanol] | 4 (% Plant height suppression of less than 50 to 30% or higher)
4 | CC[C@]1(CCl)CC[C@@H](Cc2ccc(Cl)cc2)[C@]1(O)Cn1cncn1 (racemic) [Compound I-36, (1RS,2SR,5SR)-5-(4-chlorobenzyl)-2-chloromethyl-2-ethyl-1-(1H-1,2,4-triazol-1-ylmethyl)cyclopentanol] | 4 (% Plant height suppression of less than 50 to 30% or higher)
5 | O[C@]1(Cn2cncn2)[C@H](Cc2ccc(Cl)cc2)CC[C@@H]1C(F)(F)F (racemic) [Compound I-65, (1RS,2SR,5SR)-5-(4-chlorobenzyl)-2-trifluoromethyl-1-(1H-1,2,4-triazol-1-ylmethyl)cyclopentanol] | 4 (% Plant height suppression of less than 50 to 30% or higher)
6 | C[C@]1(CCl)CC[C@@H](Cc2ccccc2)[C@]1(O)Cn1cncn1 (racemic) [Compound I-73, (1RS,2SR,5SR)-2-chloromethyl-5-benzyl-2-methyl-1-(1H-1,2,4-triazol-1-ylmethyl)cyclopentanol] | 4 (% Plant height suppression of less than 50 to 30% or higher)
7 | C[C@]1(CCl)CC[C@@H](Cc2cccc(Cl)c2)[C@]1(O)Cn1cncn1 (racemic) [Compound I-74, (1RS,2SR,5SR)-5-(3-chlorobenzyl)-2-chloromethyl-2-methyl-1-(1H-1,2,4-triazol-1-ylmethyl)cyclopentanol] | 4 (% Plant height suppression of less than 50 to 30% or higher)
8 | C[C@]1(CCl)CC[C@@H](Cc2ccc(F)cc2)[C@]1(O)Cn1cncn1 (racemic) [Compound I-77, (1RS,2SR,5SR)-2-chloromethyl-5-(4-fluorobenzyl)-2-methyl-1-(1H-1,2,4-triazol-1-ylmethyl)cyclopentanol] | 4 (% Plant height suppression of less than 50 to 30% or higher)
9 | C[C@@]1(CCCl)CC[C@@H](Cc2ccc(Cl)cc2)[C@]1(O)Cn1cncn1 (racemic) [Compound I-104, (1RS,2SR,5SR)-5-(4-chlorobenzyl)-2-(2-chloroethyl)-2-methyl-1-(1H-1,2,4-triazol-1-ylmethyl)cyclopentanol] | 4 (% Plant height suppression of less than 50 to 30% or higher)
10 | CC(Cl)=C[C@]1(C)CC[C@@H](Cc2ccc(Cl)cc2)[C@]1(O)Cn1cncn1 (racemic) [Compound I-115, (1RS,2SR,5SR)-5-(4-chlorobenzyl)-2-(2-chloropropenyl)-2-methyl-1-(1H-1,2,4-triazol-1-ylmethyl)cyclopentanol] | 4 (% Plant height suppression of less than 50 to 30% or higher)
11 | C[C@]1(CCl)CC[C@@H](Cc2ccc(Cl)cc2)[C@]1(O)Cn1ccnc1 (racemic) [Compound I-244, (1RS,2SR,5SR)-5-(4-chlorobenzyl)-2-chloromethyl-2-methyl-1-imidazol-1-ylmethylcyclopentanol] | 4 (% Plant height suppression of less than 50 to 30% or higher)
12 | C[C@]1(CCl)CC[C@H](Cc2ccc(Cl)cc2)[C@]1(O)Cn1cncn1 (racemic) [Compound I-301, (1RS,2SR,5RS)-5-(4-chlorobenzyl)-2-chloromethyl-2-methyl-1-[1,2,4]triazol-1-ylmethylcyclopentanol] | 4 (% Plant height suppression of less than 50 to 30% or higher)
13 | O[C@]1(Cn2cncn2)[C@@H](Cc2ccc(Cl)cc2)CC[C@@H]1C(F)(F)F (racemic) [Compound I-365, (1RS,2SR,5RS)-5-(4-chlorobenzyl)-2-trifluoromethyl-1-(1H-1,2,4-triazol-1-ylmethyl)cyclopentanol] | 4 (% Plant height suppression of less than 50 to 30% or higher)
14 | C[C@@]1(CCl)CC[C@H](Cc2ccc(Cl)cc2)[C@]1(O)Cn1cncn1 (racemic) [Compound I-401, (1RS,2RS,5RS)-5-(4-chlorobenzyl)-2-chloromethyl-2-methyl-1-[1,2,4]triazol-1-ylmethylcyclopentanol] | 4 (% Plant height suppression of less than 50 to 30% or higher)
15 | C[C@]1(CBr)CC[C@@H](Cc2ccc(F)cc2)[C@]1(O)Cn1cncn1 (racemic) [Compound I-601, (1RS,2SR,5SR)-2-bromomethyl-5-(4-fluorobenzyl)-2-methyl-1-(1H-1,2,4-triazol-1-ylmethyl)cyclopentanol] | 4 (% Plant height suppression of less than 50 to 30% or higher)
16 | C[C@]1(CBr)CC[C@@H](Cc2ccccc2)[C@]1(O)Cn1cncn1 (racemic) [Compound I-602, (1RS,2SR,5SR)-2-bromomethyl-5-benzyl-2-methyl-1-(1H-1,2,4-triazol-1-ylmethyl)cyclopentanol] | 4 (% Plant height suppression of less than 50 to 30% or higher)
